Data taken from the supplement of paper PMC9135407.
Where “and” joins values, the source holds several entries; their conditions need not be identical. Equal values may be shown once. Where a name gives a salt, the structure may show the parent alone. ± gives the standard deviation of the averaged measurements. This is one part of the list. Baselines shift from plate to plate; read single values as rough.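 Culture-activated primary human stellate myofibroblasts, where regained lipid droplets signal inactivation. Value: share of Hoechst-counted cells above a per-plate Bodipy cutoff, in duplicate wells, with DMSO negative and nortriptyline positive controls on each plate. Hits: a control-normalized score above the plate's top-tenth-percentile nortriptyline wells, or one of a plate's three best wells. Final well concentrations are not given.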

System: primary human hepatic stellate cells (donor 1)
Assay: percent Bodipy-positive cells; higher = more lipid droplet accumulation
Conditions: 48 h
[1] = library stock concentration: 10 mM
[2] = library stock concentration: 3.33 mM
[3] = library stock concentration: 6.4 mM
[4] = library stock concentration: 1 mM
[5] = library stock concentration: 5.8 mM

CNNCc1ccc(C(=O)NC(C)C)cc1
percent Bodipy-positive cells [1]: 5.93 ± 1.4%

CNNCc1ccc(C(=O)NC(C)C)cc1 [Procarbazine HCl]
percent Bodipy-positive cells (library stock concentration: 9 mM): 11.4 ± 2.8%

CNNCc1ccc(C(=O)NC(C)C)cc1 [Procarbazine hydrochloride]
percent Bodipy-positive cells: 8.41 ± 0.8%

NS(=O)(=O)c1cc2c(cc1Cl)NCNS2(=O)=O [Hydrochlorothiazide]
percent Bodipy-positive cells: 25.3 ± 1.9%
percent Bodipy-positive cells [2]: 6.1 ± 1.2%
percent Bodipy-positive cells (library stock concentration: 6.7 mM): 4.42 ± 1.5%

NS(=O)(=O)c1cc2c(cc1Cl)NCNS2(=O)=O
percent Bodipy-positive cells [1]: 35.3 ± 1.6%

O=C(NC1CCOCC1)c1ccc(-c2cc(-c3c[nH]nc3-c3ccccn3)ccn2)cc1
percent Bodipy-positive cells [2]: 7.61 ± 4.8%
percent Bodipy-positive cells [1]: 8.21 ± 0.54%

O=C1C(=O)N(Cc2ccc(Cl)c(Cl)c2)c2ccccc21 [Apoptosis Activator 2]
percent Bodipy-positive cells [2]: 9.73 ± 8.4%
percent Bodipy-positive cells [1]: 25.3% and 13%

COc1cc(/C=C/C(=O)O)ccc1O [Ferulic Acid]
percent Bodipy-positive cells [2]: 8.19 ± 3.3%
percent Bodipy-positive cells [1]: 6.89 ± 2.4%

COc1cc(/C=C/C(=O)O)ccc1O [Ferulic acid]
percent Bodipy-positive cells [1]: 31.2 ± 5.2%

C[N+]1(C)CCC(=C(c2ccccc2)c2ccccc2)CC1 [Diphemanil methylsulfate]
percent Bodipy-positive cells: 35 ± 7.2%

C[N+]1(C)CCC(=C(c2ccccc2)c2ccccc2)CC1 [Diphemanil Methylsulfate]
percent Bodipy-positive cells [2]: 8.5 ± 1.1%
percent Bodipy-positive cells [1]: 40.4 ± 7.6%

CN(C)CCc1c[nH]c2ccc(C[C@H]3COC(=O)N3)cc12 [Zolmitriptan]
percent Bodipy-positive cells [2]: 10.1 ± 1%
percent Bodipy-positive cells (library stock concentration: 7 mM): 10.3 ± 0.49%

CN(C)CCc1c[nH]c2ccc(C[C@H]3COC(=O)N3)cc12 [zolmitriptan]
percent Bodipy-positive cells (library stock concentration: 6.6 mM): 10.6 ± 0.36%

CN(C)CCC=C1c2ccccc2C=Cc2ccccc21 [Cyclobenzaprine hydrochloride]
percent Bodipy-positive cells [3]: 67.4 ± 1.2%
percent Bodipy-positive cells [1]: 77.2 ± 4%

CN(C)CCC=C1c2ccccc2C=Cc2ccccc21 [Cyclobenzaprine HCl]
percent Bodipy-positive cells [1]: 71.8 ± 15%

O=C1c2cccc(O)c2C(=O)c2c(O)cc(CO)cc21 [Aloe-emodin]
percent Bodipy-positive cells [2]: 6.16 ± 0.53%
percent Bodipy-positive cells [1]: 11.3 ± 4.1%

CCC(=O)O[C@H]1[C@H](O[C@@H]2[C@@H](C)[C@H](O[C@H]3C[C@@](C)(OC)[C@@H](O)[C@H](C)O3)[C@@H](C)C(=O)O[C@H](CC)[C@@](C)(O)[C@H](O)[C@@H](C)C(=O)[C@H](C)C[C@@]2(C)O)O[C@H](C)C[C@@H]1N(C)C [Erythromycin estolate]
percent Bodipy-positive cells (library stock concentration: 1.9 mM): 22.2 ± 2.6%
percent Bodipy-positive cells [1]: 35.9 ± 2.4%

O=P(O)(O)OC1[C@H](OP(=O)(O)O)[C@H](O)C(O)[C@H](O)[C@H]1OP(=O)(O)O (stereo partly drawn) [D-myo-Inositol-1,2,6-triphosphate (sodium salt)]
percent Bodipy-positive cells [4]: 7.88 ± 0.85%

O=S(=O)(c1ccccc1)c1cnc2c(N3CCNCC3)cccc2c1
percent Bodipy-positive cells [1]: 73.5 ± 2.6%

COc1cc(C(C)=O)ccc1OCCCN1CCC(c2noc3cc(F)ccc23)CC1
percent Bodipy-positive cells [1]: 90 ± 1.1%

CCCC(=O)Oc1ccc2[nH]c(C(=O)c3cc4ccccc4[nH]3)cc2c1 [PDGF Receptor Tyrosine Kinase Inhibitor II]
percent Bodipy-positive cells [2]: 7.72 ± 1.4%

Nc1ncnc2c1ncn2[C@@H]1O[C@H](COP(=O)(O)O)[C@@H](O)[C@H]1O [Adenosine phosphate]
percent Bodipy-positive cells [5]: 10.7 ± 0.19%
percent Bodipy-positive cells [1]: 13.6 ± 6.5%

NC(=O)c1ncn([C@@H]2O[C@H](CO)[C@@H](O)[C@H]2O)c1N [Acadesine]
percent Bodipy-positive cells [2]: 18.2 ± 4.8%
percent Bodipy-positive cells [1]: 13.9 ± 7.9%

NC(=O)c1ncn([C@@H]2O[C@H](CO)[C@@H](O)[C@H]2O)c1N
percent Bodipy-positive cells [1]: 32.6 ± 1.6%

O=C(CCSCc1ccco1)NNC(=O)N1Cc2ccccc2Oc2ccc(Cl)cc21
percent Bodipy-positive cells [1]: 16.4 ± 0.21%

CC1=C(/C=C/C(C)=C/C=C/C(C)=C/C(=O)Nc2ccc(O)cc2)C(C)(C)CCC1 [Retinoic acid p-hydroxyanilide]
percent Bodipy-positive cells [1]: 70.7 ± 7%

CC1=C(/C=C/C(C)=C/C=C/C(C)=C/C(=O)Nc2ccc(O)cc2)C(C)(C)CCC1 [Fenretinide]
percent Bodipy-positive cells (library stock concentration: 5.1 mM): 5.79 ± 1.4%
percent Bodipy-positive cells [1]: 4.23 ± 1.6%

O=C(O)CCC/C=C\C[C@@H]1[C@@H](/C=C/[C@H](O)CCc2ccccc2)[C@H](O)C[C@@H]1O [15(R)-17-phenyl trinor Prostaglandin F2.alpha.]
percent Bodipy-positive cells [4]: 18.2 ± 3.5%

Nc1ccc(-c2cccc3c(=O)cc(N4CCOCC4)oc23)cc1
percent Bodipy-positive cells [1]: 10.7 ± 6%

CC(c1cc2ccccc2s1)N(O)C(N)=O (stereo not drawn) [Zileuton]
percent Bodipy-positive cells [2]: 11.4 ± 3.2%
percent Bodipy-positive cells [1]: 14.8 ± 3.9%

CC(c1cc2ccccc2s1)N(O)C(N)=O (stereo not drawn)
percent Bodipy-positive cells [1]: 3.73 ± 2.9%

Cc1ccc(C(=O)Nc2ccc(CN3CCN(C)CC3)c(C(F)(F)F)c2)cc1C#Cc1cnc2cccnn12
percent Bodipy-positive cells [2]: 98.891 ± 0.056%

C[C@@H]1C(=O)O[C@H]2C[C@@]34[C@H]5C[C@@H](C(C)(C)C)[C@]36[C@@H](OC(=O)[C@@H]6O)O[C@@]4(C(=O)O5)[C@]21O [Ginkgolide A]
percent Bodipy-positive cells: 42.6 ± 18%
percent Bodipy-positive cells [2]: 8.3 ± 1.9%
percent Bodipy-positive cells [1]: 8.83 ± 1.7%

C[C@@H]1C(=O)O[C@H]2C[C@@]34[C@H]5C[C@@H](C(C)(C)C)[C@]36[C@@H](OC(=O)[C@@H]6O)O[C@@]4(C(=O)O5)[C@]21O [Ginkgolide a]
percent Bodipy-positive cells (library stock concentration: 4.9 mM): 7.93 ± 0.91%
percent Bodipy-positive cells [1]: 33.7 ± 4.5%

CC1=C(C(=O)OC2CCCCC2)C(c2ccc([N+](=O)[O-])cc2)C2=C(CC(C)(C)CC2=O)N1 (stereo not drawn)
percent Bodipy-positive cells [2]: 79.2 ± 2%

CC[N+](C)(CC)CC(=O)Nc1c(C)cccc1C [N-Methyllidocaine iodide]
percent Bodipy-positive cells [1]: 8.93 ± 5.1%

O=C(O)c1cc(O)c2c(c1)[C@H]([C@H]1c3cc(C(=O)O)cc(O)c3C(=O)c3c(O[C@@H]4O[C@H](CO)[C@@H](O)[C@H](O)[C@H]4O)cccc31)c1cccc(O[C@@H]3O[C@H](CO)[C@@H](O)[C@H](O)[C@H]3O)c1C2=O [Sennoside a]
percent Bodipy-positive cells (library stock concentration: 2.3 mM): 16 ± 2%
percent Bodipy-positive cells [1]: 36.9 ± 4%

O=C(Cc1ccccc1Nc1c(Cl)cccc1Cl)Oc1ccc(-c2cc(=S)ss2)cc1
percent Bodipy-positive cells [4]: 9.01 ± 2.4%

CC(=O)Oc1cc(C(C)C)c(OCCN(C)C)cc1C [Moxisylyte hydrochloride]
percent Bodipy-positive cells [1]: 29.6 ± 6.4%

CC(=O)Oc1cc(C(C)C)c(OCCN(C)C)cc1C [Moxisylyte hydrochoride]
percent Bodipy-positive cells: 36.4 ± 22%

Br.NC(=O)C(c1ccccc1)(c1ccccc1)[C@@H]1CCN(CCc2ccc3c(c2)CCO3)C1 [Darifenacin HBr]
percent Bodipy-positive cells [1]: 94.013 ± 0.04%

O=C1c2c(O)cc(O)cc2O[C@H](c2ccc(O)c(O)c2)[C@H]1O
percent Bodipy-positive cells [1]: 8.56 ± 4.9%

O=C1c2c(O)cc(O)cc2OC(c2ccc(O)c(O)c2)C1O (stereo not drawn) [Taxifolin (Dihydroquercetin)]
percent Bodipy-positive cells [2]: 9.75 ± 0.41%
percent Bodipy-positive cells [1]: 11.8 ± 2.9%

O=C1c2c(O)cc(O)cc2OC(c2ccc(O)c(O)c2)C1O (stereo not drawn) [(?)-Taxifolin]
percent Bodipy-positive cells [1]: 9.62 ± 0.46%

CCCCC/C=C\C/C=C\C/C=C\CCCCC(=O)OC [.gamma.-Linolenic Acid methyl ester]
percent Bodipy-positive cells [4]: 16.4 ± 11%

COc1ccc(Nc2nccc(NCCO)n2)cc1 [Cardiogenol C (hydrochloride)]
percent Bodipy-positive cells [4]: 14.7 ± 4.7%

COc1ccc(Nc2nccc(NCCO)n2)cc1 [Cardiogenol C hydrochloride]
percent Bodipy-positive cells [1]: 6.8 ± 0.96%

CN(C)CCCOc1nn(Cc2ccccc2)c2ccccc12 [Benzydamine hydrochloride]
percent Bodipy-positive cells: 71.9 ± 4.5%
percent Bodipy-positive cells [5]: 72.8 ± 20%

CN(C)CCCOc1nn(Cc2ccccc2)c2ccccc12 [Benzydamine HCl]
percent Bodipy-positive cells [2]: 29.1 ± 0.47%

CN(C)CCCN1c2ccccc2Sc2ccccc21.Cl [Promazine hydrochloride]
percent Bodipy-positive cells [1]: 85.8 ± 1.4%

O=C1c2ccccc2C(=O)c2c(NCCc3ccc(O)cc3)ccc(NCCc3ccc(O)cc3)c21
percent Bodipy-positive cells [1]: 54.6 ± 1.2%

CC(C)NCCN(C(C)C)S(=O)(=O)c1ccc(Cl)cc1Cl
percent Bodipy-positive cells [1]: 47.8 ± 2.8%

FC(F)(F)c1ccc(/C=C/c2nc(COc3ccc(CCCCn4ccnn4)cc3)co2)cc1 [Mubritinib (TAK 165)]
percent Bodipy-positive cells [2]: 6.76 ± 0.37%
percent Bodipy-positive cells [1]: 14.4 ± 3.2%

FC(F)(F)c1ccc(/C=C/c2nc(COc3ccc(CCCCn4ccnn4)cc3)co2)cc1
percent Bodipy-positive cells [1]: 10.4 ± 3%

CCCCC[C@](C)(O)/C=C/[C@H]1[C@H](O)CC(=O)[C@@H]1C/C=C\CCCC(=O)O [15(S)-15-methyl Prostaglandin E2]
percent Bodipy-positive cells [4]: 13.4 ± 2.7%

CC(Oc1cc(-c2cnn(C3CCNCC3)c2)cnc1N)c1c(Cl)ccc(F)c1Cl [(S)-crizotinib]
percent Bodipy-positive cells [2]: 85.5 ± 5.6%
percent Bodipy-positive cells [1]: 100%

CCCCC(=O)O[C@]1(C(=O)CO)[C@@H](C)C[C@H]2[C@@H]3CCC4=CC(=O)C=C[C@]4(C)[C@@]3(F)[C@@H](O)C[C@@]21C [Betamethasone valerate]
percent Bodipy-positive cells [1]: 15.1 ± 7.4%

Cc1nc(-c2ccccc2)c(-c2ccncc2)o1
percent Bodipy-positive cells [2]: 17.9 ± 12%

CNCC[C@H](Oc1ccc(C(F)(F)F)cc1)c1ccccc1 [S-(+)-Fluoxetine hydrochloride]
percent Bodipy-positive cells [1]: 97.8 ± 3.2%

COc1cc(C(=O)N2CCOCC2)cc(OC)c1OC [Trimetozine]
percent Bodipy-positive cells (library stock concentration: 7.1 mM): 11.9 ± 7.4%

CC(=O)OCC(=O)[C@@]1(O)CC[C@H]2[C@@H]3CCC4=CC(=O)CC[C@]4(C)[C@H]3C(=O)C[C@@]21C
percent Bodipy-positive cells [1]: 36.4 ± 5.8%

CC(=O)OCC(=O)[C@@]1(O)CC[C@H]2[C@@H]3CCC4=CC(=O)CC[C@]4(C)[C@H]3C(=O)C[C@@]21C [Cortisone 21-acetate]
percent Bodipy-positive cells [1]: 52.6 ± 1.1%

CC(=O)OCC(=O)[C@@]1(O)CC[C@H]2[C@@H]3CCC4=CC(=O)CC[C@]4(C)[C@H]3C(=O)C[C@@]21C [Cortisone acetate]
percent Bodipy-positive cells [2]: 10.4 ± 1.3%
percent Bodipy-positive cells (library stock concentration: 5 mM): 2.94 ± 0.9%
percent Bodipy-positive cells [1]: 6.93% and 11.2%

CC(=O)OCC(=O)[C@@]1(O)CC[C@H]2[C@@H]3CCC4=CC(=O)C=C[C@]4(C)[C@@]3(F)[C@@H](O)C[C@@]21C [Isoflupredone acetate]
percent Bodipy-positive cells: 20.6 ± 0.65%

N=C(NO)NCC[C@H](N)C(=O)O
percent Bodipy-positive cells [4]: 8.64 ± 2.1%

C#C[C@]1(O)CC[C@H]2[C@@H]3[C@H](C)CC4=C(CCC(=O)C4)[C@H]3CC[C@@]21C
percent Bodipy-positive cells [1]: 13.1 ± 3.5%

C#C[C@]1(O)CC[C@H]2[C@@H]3[C@H](C)CC4=C(CCC(=O)C4)[C@H]3CC[C@@]21C [Tibolone]
percent Bodipy-positive cells [4]: 10.6 ± 4.2%
percent Bodipy-positive cells [3]: 6.79 ± 2.6%

CC(C)(C)c1cc(C(=O)C(C#N)=NNc2cccc(Cl)c2)no1
percent Bodipy-positive cells [2]: 40.2 ± 2.1%
percent Bodipy-positive cells [1]: 35.4 ± 11%

Cn1cc(C(=O)OCC2CCN(CCNS(C)(=O)=O)CC2)c2ccccc21
percent Bodipy-positive cells [1]: 33.7 ± 3.2%

O=C(O)COc1cccc(-c2ocnc2-c2nc(-c3ccccc3)c(-c3ccccc3)o2)c1
percent Bodipy-positive cells [1]: 6.88 ± 0.82%

S=C=Nc1ccc(N=C=S)cc1
percent Bodipy-positive cells [1]: 38.9 ± 10%

C=CC(=O)Nc1cc2c(Nc3ccc(F)c(Cl)c3)ncnc2cc1C#CC(C)(C)N1CCN(C)CC1
percent Bodipy-positive cells (library stock concentration: 400 uM): 100%
